# Test results reported in PMC4444337 (PLoS ONE, 2015).
# Assays:
# IL6 = IL6 in BALF (Luminex) after RSV challenge; type: in vivo, African green monkeys
# Description: (§1) The following monkey-specific cytokines were determined in BALF using a Luminex bead analysis according to the manufacturer's protocol: Interleukins (IL)-1b, IL-2, IL-4, IL-5, IL-6, IL-8, IL-10, Interferons (IFN)γ, IFNα, Tumor necrosis factor (TNF)α, Regulated on Activation, Normal T Cell Expressed and Secreted (RANTES), and Macrophage inflammatory protein (MIP)-1α. The non-human primate Luminex beads for IFNγ, IFNα, and IL-10 were provided by Texas Biomedical Research Institute (Texas, USA). The beads for the remaining cytokines were obtained from Millipore (Billerica, MA, USA). The samples for cytokine determination were run in duplicates. Human cytokine standards were used for standard curves and for determination of the lower limit of detection for individual cytokines. The results were read using a Luminex 100 System (Texas, USA).
# [1] = highest dose group, at necropsy
# Description: (§2) In Study 1 all animals were followed until day 13 post-inoculation, when the necropsy took place.
# (§3) In Study 2 all animals were followed until day 15 post-inoculation, when the necropsy took place.
# (§4) Bronchoalveolar lavage fluid (BALF), nasal and throat swabs and blood samples were collected every 2 days from day 1 postinfection up to day 11 (study 1) and day 13 (study 2). For BALF collection, monkeys were sedated with […] (0.02–0.05 mg/kg) administered intramuscularly to allow passage of sterile laryngoscope and endotracheal tube. BAL was performed by laryngoscopy by inserting a shortened Kendall Sovereign feeding tube and urethral catheter through the endotracheal tube and approximately 10 mL of phosphate buffer saline (10 mL, pH 7.4) was instilled and gently suctioned back into the syringe promptly to recover approximately 5–7 mL of BAL in the syringe. Later, the adjustment of the dilution was done based on urea and protein concentration. White blood cell (WBC) count from BALF was analyzed using automated blood analysis instrumentation (Antech Diagnostics, Lake Success, NY, USA).
# [2] = cited from earlier work
# RSV subgroup A strain A2 = experiment: RSV viral load (qRT-PCR, RSV-A F gene) in BALF/throat after RSV A2 challenge; type: in vivo, African green monkeys
# Description: as §2, §3, §4
# All animals were challenged with 1.5mL of 1 × 10^4 pfu/mL RSV subgroup A—strain A2 virus intranasally (i.n.) and intratracheally (i.t.) on day 0. […] The virus was thawed at room temperature and immediately put on ice.
# For each inoculation, 1.5 mL were aspirated with a 3 mL syringe. After being anesthetized with 10 mg/mL ketamine, the animals were placed in dorsal recumbency. 0.25 mL of the virus was instilled drop-by-drop into each nostril and allowed to absorb for 20 sec. […]
# RSV was quantified using one-Step RT-PCR Master Mix reagents (Applied Bio systems, USA). […]
# The IEC-B assay was run as control. The viral load (VL) was expressed as RSV A-F copy numbers and transformed in Δ log10 values. […] The antiviral effect was calculated as differences between peak VL and area under the curve (AUC) VL based on Δ log10 RSV from different groups.
# IFNγ = IFNγ in BALF (Luminex) after RSV challenge; type: in vivo, African green monkeys
# Description: as §1
# [3] = cited from earlier work; remark: listed apart in the source
# RSV = settings: plasma protein binding correction factor: 100
# MIP1α = MIP1α in BALF (Luminex) after RSV challenge; type: in vivo, African green monkeys
# Description: as §1
smiles,measurement,setting,value
Cc1ccc(CCCO)c(NCc2ccc3nc(NCCCN4CCOCC4)n(Cc4nc(C)ccc4O)c3c2)c1 [TMC353121],IL6 AUC Median in BALF,"IL6; Study 1, Px50, vehicle Vh1 540",527
same,IL6 AUC Median in BALF,"IL6; Study 1, Tx50, vehicle Vh1 540",391
same,IL6 AUC Median in BALF,"IL6; Study 2, Px5, vehicle Vh2 1174",537.5
same,IL6 AUC Median in BALF,"IL6; Study 2, Px500, vehicle Vh2 1174",0
same,Plasma concentration after cessation of the infusion,[1],still detectable at the time of necropsy
same,lung t1/2,[2],25 h
same,Reduction of VL AUC,"RSV subgroup A strain A2; Study 1, Px50, BALF",20%
same,Reduction of VL AUC,"RSV subgroup A strain A2; Study 1, Tx50, BALF",5%
same,Reduction in peak viral load in BALF compared to the remaining controls,"RSV subgroup A strain A2; one control (V1) AGM accidentally infused with the drug for 24 hours, two days after infection",1.5 log10
same,IFNγ AUC Median in BALF,"IFNγ; Study 1, Px50, vehicle Vh1 5936",5678
same,IFNγ AUC Median in BALF,"IFNγ; Study 1, Tx50, vehicle Vh1 5936",2718
same,IFNγ AUC Median in BALF,"IFNγ; Study 2, Px5, vehicle Vh2 8120",1498
same,IFNγ AUC Median in BALF,"IFNγ; Study 2, Px500, vehicle Vh2 8120",46
same,Cytotoxicity,[3],low cytotoxicity
same,EC50c (EC50 corrected for plasma protein binding),RSV,The concentration of drug in different compartments was expressed as fold EC50c. EC50c = 7 ng/mL x plasma protein binding correction factor: 100. Urea dilution factor of 9.7 was applied for drug concentration in BALF. LOD = limit of detection. LODTMC353121 = 0.19 ng/mL.
same,MIP1α AUC Median in BALF,"MIP1α; Study 1, Px50, vehicle Vh1 394",201
same,MIP1α AUC Median in BALF,"MIP1α; Study 1, Tx50, vehicle Vh1 394",106
same,MIP1α AUC Median in BALF,"MIP1α; Study 2, Px5, vehicle Vh2 718.5",142
same,MIP1α AUC Median in BALF,"MIP1α; Study 2, Px500, vehicle Vh2 718.5",0
